PMC7827558
No constants are given. Whether binding was seen depends on the method and setting. Binding seen in cells or lysates may run through a third protein. These calls come from enrichment with a bait or labelling near it, and not all partners need be listed.

Biological target: BirA–p53β fusion protein (human) (UniProt P04637)
Assay: proximity labelling; BioID: MCF-7 transiently transfected with pCMV-BirA-p53FL or pCMV-BirA-p53β, biotin overnight, lysates on streptavidin beads, biotinylated proteins identified by MS; hits validated by immunoblot (Figure 4)

binding: binds
B1: CARF (protein, UniProt Q9NXV6 1-580)
chain: MAQEVSEYLSQNPRVAAWVEALRCDGETDKHWRHRRDFLLRNAGDLAPAGGAASASTDEAADAESGTRNRQLQQLISFSMAWANHVFLGCRYPQKVMDKILSMAEGIKVTDAPTYTTRDELVAKVKKRGISSSNEGVEEPSKKRVIEGKNSSAVEQDHAKTSAKTERASAQQENSSTCIGSAIKSESGNSARSSGISSQNSSTSDGDRSVSSQSSSSVSSQVTTAGSGKASEAEAPDKHGSASFVSLLKSSVNSHMTQSTDSRQQSGSPKKSALEGSSASASQSSSEIEVPLLGSSGSSEVELPLLSSKPSSETASSGLTSKTSSEASVSSSVAKNSSSSGTSLLTPKSSSSTNTSLLTSKSTSQVAASLLASKSSSQTSGSLVSKSTSLASVSQLASKSSSQTSTSQLPSKSTSQSSESSVKFSCKLTNEDVKQKQPFFNRLYKTVAWKLVAVGGFSPNVNHGELLNAAIEALKATLDVFFVPLKELADLPQNKSSQESIVCELRCKSVYLGTGCGKSKENAKAVASREALKLFLKKKVVVKICKRKYRGSEIEDLVLLDEESRPVNLPPALKHPQELL
